Measurements from paper PMC3229508.
These are yes or no findings as the source states them, for the method shown. For some assays here: In cells and extracts the contact can be indirect. Some results given as binding are weak or reduced against the parent protein; the word gives no strength. Values belong to the substance of their own block, whether it stands above or below them.

Chains of the proteins cited; added tags and fusions are not shown.
UniProt P21796: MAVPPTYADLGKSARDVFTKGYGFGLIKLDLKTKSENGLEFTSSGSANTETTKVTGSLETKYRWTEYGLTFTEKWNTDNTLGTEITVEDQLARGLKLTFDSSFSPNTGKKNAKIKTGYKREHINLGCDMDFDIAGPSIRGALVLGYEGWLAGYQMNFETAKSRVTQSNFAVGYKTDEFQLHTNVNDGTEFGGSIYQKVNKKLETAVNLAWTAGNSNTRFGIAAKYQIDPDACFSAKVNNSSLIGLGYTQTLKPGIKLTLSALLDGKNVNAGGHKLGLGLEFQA
UniProt Q9Z2L0: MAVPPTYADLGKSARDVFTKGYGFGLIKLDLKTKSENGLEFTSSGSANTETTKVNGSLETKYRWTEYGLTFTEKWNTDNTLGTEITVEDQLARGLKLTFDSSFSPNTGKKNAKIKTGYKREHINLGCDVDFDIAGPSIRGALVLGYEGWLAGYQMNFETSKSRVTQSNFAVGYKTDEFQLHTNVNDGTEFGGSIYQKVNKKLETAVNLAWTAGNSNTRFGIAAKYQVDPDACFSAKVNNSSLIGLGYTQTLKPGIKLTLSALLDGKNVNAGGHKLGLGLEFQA
UniProt P63172: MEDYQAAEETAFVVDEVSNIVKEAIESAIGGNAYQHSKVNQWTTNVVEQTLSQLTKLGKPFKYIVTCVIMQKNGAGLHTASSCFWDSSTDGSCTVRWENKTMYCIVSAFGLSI
UniProt Q9Z336: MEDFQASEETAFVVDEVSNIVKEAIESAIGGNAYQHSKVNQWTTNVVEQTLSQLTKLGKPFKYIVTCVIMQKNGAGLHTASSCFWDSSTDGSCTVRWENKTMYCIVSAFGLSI

Experiments:
[1] = biological target: VDAC1 (voltage-dependent anion channel 1), endogenous in HeLa cells (human (endogenous in HeLa)) (UniProt P21796); experiment: co-IP; endogenous proteins in whole-cell lysates of CMs and HeLa cells (RIPA buffer, 2 mM PMSF, protease inhibitors); anti-DYNLT1 (goat E-16 or rabbit H-60) or anti-VDAC1 (FL-283) for 6 h at 4°C, protein A/G-Sepharose overnight at 4°C, washed with PBS; immunoblot; isotype controls
[2] = biological target: VDAC1 (voltage-dependent anion channel 1), endogenous in neonatal rat cardiomyocytes (rat (endogenous in neonatal rat cardiomyocytes)) (UniProt Q9Z2L0); experiment: as above
[3] = biological target: hVDAC1 (voltage-dependent anion channel 1), yeast two-hybrid bait from pDBleu-hVDAC1 (human) (UniProt P21796); experiment: two-hybrid; library screen in yeast strain MaV203; bait pDBleu-hVDAC1, prey pPC86 cDNA library from human hepatocytes; selection plates lacking His and Trp, LacZ filter assay; prey plasmids re-transformed with the bait or control bait plasmids
[4] = biological target: DYNLT1 (dynein light chain Tctex-type 1), endogenous in HeLa cells (human (endogenous in HeLa)) (UniProt P63172); experiment: co-IP; endogenous proteins in whole-cell lysates of CMs and HeLa cells (RIPA buffer, 2 mM PMSF, protease inhibitors); anti-DYNLT1 (goat E-16 or rabbit H-60) or anti-VDAC1 (FL-283) for 6 h at 4°C, protein A/G-Sepharose overnight at 4°C, washed with PBS; immunoblot; isotype controls
[5] = biological target: DYNLT1 (dynein light chain Tctex-type 1), endogenous in neonatal rat cardiomyocytes (rat (endogenous in neonatal rat cardiomyocytes)) (UniProt Q9Z336); experiment: as above

binding [1]: binds
Substance: DYNLT1 (dynein light chain Tctex-type 1), endogenous in HeLa cells (from UniProt P63172 1-113)

binding [2]: binds
Substance: DYNLT1 (dynein light chain Tctex-type 1), endogenous in neonatal rat cardiomyocytes (from UniProt Q9Z336 1-113)

binding [3]: binds
Substance: DYNLT1 (dynein light chain Tctex-type 1), yeast two-hybrid prey clone from a human hepatocyte cDNA library (from UniProt P63172 1-113)

binding [4]: binds
Substance: VDAC1 (voltage-dependent anion channel 1), endogenous in HeLa cells (from UniProt P21796 1-283)

binding [5]: binds
Substance: VDAC1 (voltage-dependent anion channel 1), endogenous in neonatal rat cardiomyocytes (from UniProt Q9Z2L0 1-283)
